Measurements taken from article PMC3796546.
These are yes or no findings as the source states them, for the method shown. In cells and extracts the contact can be indirect. Some binding calls cover weakened binding; strength is not graded here.

Sequences of proteins named here, by UniProt entry; tags and fusion partners are left off.
UniProt P25694: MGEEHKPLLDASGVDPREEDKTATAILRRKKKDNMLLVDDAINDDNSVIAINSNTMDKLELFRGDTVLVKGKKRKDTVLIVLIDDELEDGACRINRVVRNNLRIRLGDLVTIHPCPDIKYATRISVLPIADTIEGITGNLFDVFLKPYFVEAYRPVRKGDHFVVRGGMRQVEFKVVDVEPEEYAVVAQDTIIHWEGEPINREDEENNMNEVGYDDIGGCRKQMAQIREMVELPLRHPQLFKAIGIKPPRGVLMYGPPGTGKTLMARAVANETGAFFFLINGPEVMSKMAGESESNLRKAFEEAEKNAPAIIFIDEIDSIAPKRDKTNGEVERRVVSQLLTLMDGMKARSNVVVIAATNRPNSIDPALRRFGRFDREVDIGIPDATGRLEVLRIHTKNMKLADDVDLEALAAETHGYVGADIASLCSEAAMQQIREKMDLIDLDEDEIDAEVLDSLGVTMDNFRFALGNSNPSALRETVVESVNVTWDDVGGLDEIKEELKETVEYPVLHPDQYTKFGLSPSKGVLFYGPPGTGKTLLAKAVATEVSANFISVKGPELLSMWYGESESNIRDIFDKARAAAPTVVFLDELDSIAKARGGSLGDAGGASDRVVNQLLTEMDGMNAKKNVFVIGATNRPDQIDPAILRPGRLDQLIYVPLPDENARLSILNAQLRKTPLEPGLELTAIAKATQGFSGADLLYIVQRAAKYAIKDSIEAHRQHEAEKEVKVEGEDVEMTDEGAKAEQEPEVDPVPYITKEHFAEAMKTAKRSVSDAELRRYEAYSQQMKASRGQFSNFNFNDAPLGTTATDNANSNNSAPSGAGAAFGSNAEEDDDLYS

Molecular target: T1, 3xHA-Irc20 (a.a. 1–1238) (S. cerevisiae) (UniProt Q06554)
T1 sequence: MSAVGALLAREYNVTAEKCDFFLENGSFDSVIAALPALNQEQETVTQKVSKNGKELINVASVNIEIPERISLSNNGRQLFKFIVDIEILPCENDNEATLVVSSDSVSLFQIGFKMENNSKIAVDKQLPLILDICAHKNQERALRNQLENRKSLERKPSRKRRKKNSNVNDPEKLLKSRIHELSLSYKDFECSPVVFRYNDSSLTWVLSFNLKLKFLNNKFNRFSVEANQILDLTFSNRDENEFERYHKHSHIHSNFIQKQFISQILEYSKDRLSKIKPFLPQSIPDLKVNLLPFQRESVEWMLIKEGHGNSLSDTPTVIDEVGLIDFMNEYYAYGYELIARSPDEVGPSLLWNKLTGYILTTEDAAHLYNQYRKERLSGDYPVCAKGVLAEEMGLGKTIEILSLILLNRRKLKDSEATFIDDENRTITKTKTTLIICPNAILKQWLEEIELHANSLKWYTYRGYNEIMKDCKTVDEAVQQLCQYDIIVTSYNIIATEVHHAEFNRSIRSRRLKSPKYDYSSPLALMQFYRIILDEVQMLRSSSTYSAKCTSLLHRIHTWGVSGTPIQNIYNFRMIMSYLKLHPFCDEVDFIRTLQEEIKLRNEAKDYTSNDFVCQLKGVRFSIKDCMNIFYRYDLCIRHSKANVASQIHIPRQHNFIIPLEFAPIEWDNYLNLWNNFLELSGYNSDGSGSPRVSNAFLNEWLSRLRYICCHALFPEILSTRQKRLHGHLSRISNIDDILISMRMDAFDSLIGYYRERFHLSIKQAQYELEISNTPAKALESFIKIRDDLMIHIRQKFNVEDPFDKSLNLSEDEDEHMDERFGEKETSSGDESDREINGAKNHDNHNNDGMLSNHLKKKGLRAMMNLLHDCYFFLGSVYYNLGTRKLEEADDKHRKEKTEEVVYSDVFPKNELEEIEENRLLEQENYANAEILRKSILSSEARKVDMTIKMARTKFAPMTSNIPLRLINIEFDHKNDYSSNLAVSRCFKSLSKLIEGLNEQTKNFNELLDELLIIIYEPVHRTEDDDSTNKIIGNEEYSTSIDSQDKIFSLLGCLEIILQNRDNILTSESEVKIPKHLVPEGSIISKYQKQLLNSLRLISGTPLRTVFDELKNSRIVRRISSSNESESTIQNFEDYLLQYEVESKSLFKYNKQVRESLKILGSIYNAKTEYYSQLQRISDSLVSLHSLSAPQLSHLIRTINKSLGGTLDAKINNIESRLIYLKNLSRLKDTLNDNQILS
Test: co-IP; yeast crude extract in RNP buffer (0.1 M HEPES pH 7.4, 100 mM NaCl, 0.1% NP-40) on anti-HA agarose beads, 4°C, 90 minutes; HA-Irc20 derivatives precipitated, Cdc48–3xMyc detected by anti-MYC western blot

binding: binds
Substance: Cdc48–3xMyc (from UniProt P25694 1-835)
